Binding data for 3 molecules are collected here from publication PMC9433385.

By UniProt entry, the sequences of proteins in these tests, tags left out.
UniProt A2A432: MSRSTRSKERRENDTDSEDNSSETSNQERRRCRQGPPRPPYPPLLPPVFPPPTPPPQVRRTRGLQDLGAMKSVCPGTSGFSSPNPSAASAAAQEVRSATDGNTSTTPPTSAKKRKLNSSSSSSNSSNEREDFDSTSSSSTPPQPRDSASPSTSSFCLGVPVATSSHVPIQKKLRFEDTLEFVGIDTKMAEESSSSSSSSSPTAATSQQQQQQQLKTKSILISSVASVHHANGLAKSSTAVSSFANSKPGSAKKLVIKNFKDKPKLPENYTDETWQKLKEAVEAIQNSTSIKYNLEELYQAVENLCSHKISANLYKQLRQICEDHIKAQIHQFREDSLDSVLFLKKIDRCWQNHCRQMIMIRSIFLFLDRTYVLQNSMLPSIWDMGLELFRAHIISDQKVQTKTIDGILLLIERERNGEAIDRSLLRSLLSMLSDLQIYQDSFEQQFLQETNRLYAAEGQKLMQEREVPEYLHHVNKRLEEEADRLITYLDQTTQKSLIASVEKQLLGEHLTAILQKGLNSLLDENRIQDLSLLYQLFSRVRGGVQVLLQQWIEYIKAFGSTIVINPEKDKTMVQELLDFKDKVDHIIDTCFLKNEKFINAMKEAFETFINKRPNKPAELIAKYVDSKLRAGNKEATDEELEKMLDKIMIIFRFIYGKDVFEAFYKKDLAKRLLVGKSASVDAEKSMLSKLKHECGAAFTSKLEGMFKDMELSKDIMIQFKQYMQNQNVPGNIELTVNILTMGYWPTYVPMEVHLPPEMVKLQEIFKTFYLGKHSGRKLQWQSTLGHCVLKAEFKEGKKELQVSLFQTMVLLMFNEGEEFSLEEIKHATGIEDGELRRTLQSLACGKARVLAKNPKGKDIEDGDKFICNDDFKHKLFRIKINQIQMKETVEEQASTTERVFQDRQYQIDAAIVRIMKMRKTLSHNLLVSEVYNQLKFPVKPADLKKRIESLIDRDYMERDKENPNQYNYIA

This experiment addresses CUL4B (bait of the mass spectrometry of CUL4B-interacting proteins) (UniProt A2A432). Nature of the experiment: affinity purification with mass spectrometry; CUL4B-interacting proteins identified by mass spectrometry; source and procedure not told.

These are yes or no findings as the source states them, for the method shown. Binding seen in cells or lysates may run through a third protein. A yes stands for co-enrichment or nearness to the bait. Other partners may have been found.

B1: WDR18 (protein, UniProt Q4VBE8 1-431)
chain: MAAPMEVVVCTDAAAQLWSCVVWELHSGANLLTYRGGQAGPRGLALLNGEYLLAAQQGKNYICAWELQRKDQLQQKIMCPGPVTCLTTAPNGLYVLAGIAESIYLWEVCTGNLLVILSRHYQDVSCLKFTGDGSHFVSAGKDCLALAWSLCSVLQADPSRILAPRHVWSQHTLPITDLHCGFGGPMARVATASLDQTVKLWAISSGDLLLSVLFDMGITSVTMDLAEHHIFCGGSDGSIFQVDLCSWPGLREHSFQPEQNTGKVFKGHRNQVTCLSVSTDGSVLLSGSHDESVRLWDVKSKQCLRTVTLKGPVTNAAIILAPPSMLNPEFRPSLPLPHFNKHLLGAEHGDEAQGGGLRLQLGLHLQGKEPSYLERLEQLQAVLSSYLEKNMLGSQMLPARVFDLEDEVRSLRKINRDLFDFSTRIITRPSK
As to B1, the binding result is given as “binds”.

B2: WDR1 (protein, UniProt O88342 1-606)
chain: MPYEIKKVFASLPQVERGVSKILGGDPKGDHFLYTNGKCVILRNIDNPAIADIYTEHAHQVVVAKYAPSGFYIASGDISGKLRIWDTTQKEHLLKYEYQPFAGKIKDIAWTEDSKRIAVVGEGREKFGAVFLWDTGSSVGEITGHNKVINSVDIKQTRPYRLATGSDDNCAAFFEGPPFKFKFTIGDHSRFVNCVRFSPDGNRFATASADGQIFIYDGKTGEKVCALGESKAHDGGIYAISWSPDSTHLLSASGDKTSKIWDVNVNSVVSTFPMGSNVLDQQLGCLWQKDHLLSISLSGYINYLDKNNPSKPLRVIKGHSKSIQCLTVHRNGGKSYIYSGSHDGHINYWDSETGENDSFSGKGHTNQVSRMTVNESEQLVSCSMDDTVRYTNLTLRDYSGQGVVKLDVQPKCVAVGPGGYTVVVCIGQIVLLKDQKKCFSIDNPGYEPEVVAVHPGGDTVAVGGTDGNVRVYSILASTLKDEGKLLEAKGPVTDVAYSHDGAFLAVCDASKVVTVFSVADGYSENNVFYGHHAKIVCLAWSPDNEHFASGGMDMMVYVWTLSDPETKVKIQDAHRLHHVSSLAWLDEHTLVTTSHDASVKEWTITY
In the case of B2, the binding entry was “binds”.

B3: WDR3 (protein, UniProt Q8BHB4 1-942)
chain: MGLTKQYLRYVASAVFGLIGSQKGNIVFVTLRGEKGRYVAVPACEHVFIWDLRKGEKILILQGNKQEVTCLCPSPDGLHLAVGYEDGAIRIFSLLSGEGNITFNGHKAAVTSLKYDQLGGRLASGSKDTDVIIWDVINESGLYRLKGHKDAVTQALFLRERNLLVTSGKDTMVKWWDLDNQHCFKTMVGHRTEVWGLVLVSEEKRLITGAADSELRAWDIDYLQEIDDPEEPEPKKIKECPGIQDTPESEDSTLEADDEKSEDRILSCSKAGSIMREGRDRVVNLAVDKTGRILACHGTDSVLEVFCILSKAEVQKKMDKKLKKARKKARLNSANEEEDPETSVSMTLQDEILRVAKIKTSAKIKSFDLIHSPQGELKAVFLLQNNLVELYSLNASLPAPQPVRTSRITIGGHRSDVRTLSFSSDNIAVLSAAADSIKIWNRSTLQCIRTMPCEYALCSFFVPGDRQVVIGTKTGNLQLYDLASGTLLETIAAHDGALWSMSLSPDQRGFVTGGADKAVKFWDFELVTDKNSTQKRLSVKQTRTLQLDEDVLCVSYSPNQKLLAVSLLDCTVKVFYVDTLKFFLSLYGHKLPVLCMDISHDGALIATGSADRNVKIWGLDFGDCHRSLFAHDDSVMYLRFVPKSHLFFTAGKDHKIKQWDADKFEHIQTLEGHHQEIWCLAVSPSGDYVVSASHDKSLRLWERTREPLILEEEREMQREAEYEESVAKEDQPAVPGETQGDNYFTGKKTIETVKAAERIMEAIELHREETAKMKEHRAICKAAGKEVPLPVNPILMAHGNISPSAYVLETFKGIRSSELEEALLVLPFSYVPDVLTLFNEFIQTGLDVELLCRCLFFLLRIHFGQITSNQMLVPVIEKLKETTISKVRQVQDAIGFNMAGLDYLKRECEAKSEVMFFAEATSHLEEKKKKRKNRKRMILTLT
As to B3, the binding entry is on record as “binds”.
